Where two headings read alike, the source gives them in different places. Marks after values point to notes of the source that are not given here.
Tests used:
[1] = system: D. melanogaster nAChRs; assay: Lattice analysis of subunit factors determining affinity (ΔpEC50)
[2] = system: D. melanogaster nAChRs; assay: Multivariate analysis of factors determining affinity (pEC50) and efficacy (Imax); conditions: for Coefficients (95% CI), Imax / Coefficients (95% CI), pEC50: multivariate analysis, adjusted model, acetylcholine as reference, 12 nAChRs
[3] = compound factor, Acetylcholine as Reference, adjusted model using all covariates

Row | SMILES | ΔpEC50, mean (95% confidence interval), lattice analysis ([1]; subunit Dα1) | ΔpEC50, mean (95% confidence interval), lattice analysis ([1]; subunit Dα2) | ΔpEC50, mean (95% confidence interval), lattice analysis ([1]; subunit Dα3) | ΔpEC50, mean (95% confidence interval), lattice analysis ([1]; subunit Dβ2) | Imax Coefficients (95% CI) [2, 3] | pEC50 Coefficients (95% CI) [2, 3] | Coefficients (95% CI), Imax [2] | Coefficients (95% CI), pEC50 [2] | pEC50 Coefficients (95% CI) [2]
1 | CN/C(=N\[N+](=O)[O-])NCc1cnc(Cl)s1 [Clothianidin, clothianidin] | -0.340 (-0.765 − 0.085) | -0.792 (-1.493 − -0.090)* | 0.648 (-0.348 − 1.643) | 0.232 (-0.386 − 0.850) | -0.951 (-1.020 − -0.881)* | 2.229 (1.928 − 2.530)* | -0.951 (-1.020 − -0.881) ^* | 2.229 (1.928 − 2.530) ^* | –
2 | N#C/N=C1\SCCN1Cc1ccc(Cl)nc1 [Thiacloprid, thiacloprid] | -0.035 (-1.210 − 1.140) | -0.652 (-0.951 − -0.352)* | 0.328 (-0.201 − 0.856) | 0.218 (-0.389 − 0.826) | -0.881 (-0.951 − -0.811)* | 1.785 (1.484 − 2.086)* | -0.881 (-0.951 − -0.811) ^* | 1.785 (1.484 − 2.086) ^* | –
3 | O=[N+]([O-])NC1=NCCN1Cc1ccc(Cl)nc1 [Imidacloprid, imidacloprid] | – | – | – | – | -0.333 (-0.403 − -0.263)* | – | -0.333 (-0.403 − -0.263) ^* | 1.414 (1.113 − 1.715) ^* | 1.414 (1.113 − 1.715)*
